According to paper PMC11490714:
Results are given in words; binding and its absence hold for the method and conditions named. In cells and extracts the contact can be indirect. These calls come from enrichment with a bait or labelling near it, and not all partners need be listed. Sequences can lack the tags named with a protein.

T1: FLAG-RBM39 (human) (UniProt Q14498)
T1 sequence: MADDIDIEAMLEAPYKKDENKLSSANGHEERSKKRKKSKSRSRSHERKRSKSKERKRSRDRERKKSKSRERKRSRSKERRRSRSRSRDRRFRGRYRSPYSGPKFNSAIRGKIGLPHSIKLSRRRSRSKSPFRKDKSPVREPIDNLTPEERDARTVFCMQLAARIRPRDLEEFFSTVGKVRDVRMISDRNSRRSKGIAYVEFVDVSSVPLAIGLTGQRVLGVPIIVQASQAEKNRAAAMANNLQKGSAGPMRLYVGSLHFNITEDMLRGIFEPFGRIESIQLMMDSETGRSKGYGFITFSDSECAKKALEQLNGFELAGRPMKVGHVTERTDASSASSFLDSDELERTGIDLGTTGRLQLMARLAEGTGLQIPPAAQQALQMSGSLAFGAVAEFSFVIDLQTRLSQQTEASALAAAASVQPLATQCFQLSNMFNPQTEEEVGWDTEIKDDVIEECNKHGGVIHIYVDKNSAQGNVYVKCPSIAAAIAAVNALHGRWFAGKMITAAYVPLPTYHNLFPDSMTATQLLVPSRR

B1: FBXW4 (protein, UniProt P57775 1-412)
chain: MAAAAGEEEEEEEAARESAARPAAGPALWRLPEELLLLICSYLDMRALGRLAQVCRWLRRFTSCDLLWRRIARASLNSGFTRLGTDLMTSVPVKERVKVSQNWRLGRCREGILLKWRCSQMPWMQLEDDSLYISQANFILAYQFRPDGASLNRRPLGVFAGHDEDVCHFVLANSHIVSAGGDGKIGIHKIHSTFTVKYSAHEQEVNCVDCKGGIIVSGSRDRTAKVWPLASGRLGQCLHTIQTEDRVWSIAISPLLSSFVTGTACCGHFSPLRIWDLNSGQLMTHLGSDFPPGAGVLDVMYESPFTLLSCGYDTYVRYWDLRTSVRKCVMEWEEPHDSTLYCLQTDGNHLLATGSSYYGVVRLWDRRQRACLHAFPLTSTPLSSPVYCLRLTTKHLYAALSYNLHVLDFQNP
B2: METTL25 (enzyme, UniProt Q8N6Q8 1-603)
chain: MAASCPLPVTPDLPTLRAKLQGLLQFLRDALSISNAHTVDFYTESVWEELVDLPPETVLAALRKSASETEALPSETRPLVEAEWEAGMTDFPKIFCETSQKLVSVEAFALAAKYYSVQNLGICTPFEQLLVALRGNQNQRIGENQKAVEFMNMKKSHEVQAMSELISSIADYYGIKQVIDLGSGKGYLSSFLSLKYGLKVYGIDSSNTNTHGAEERNRKLKKHWKLCHAQSRLDVNGLALKMAKERKVQNKVKNKADTEEVFNNSPTNQEKMPTSAILPDFSGSVISNIRNQMETLHSQPHQEENLCFENSFSLINLLPINAVEPTSSQQIPNRETSEANKERRKMTSKSSESNIYSPLTSFITADSELHDIIKDLEDCLMVGLHTCGDLAPNTLRIFTSNSEIKGVCSVGCCYHLLSEEFENQHKERTQEKWGFPMCHYLKEERWCCGRNARMSACLALERVAAGQGLPTESLFYRAVLQDIIKDCYGITKCDRHVGKIYSKCSSFLDYVRRSLKKLGLDESKLPEKIIMNYYEKYKPRMNELEAFNMLKVVLAPCIETLILLDRLCYLKEQEDIAWSALVKLFDPVKSPRCYAVIALKKQQ

Biological target: T1, FLAG-RBM39 (human)
Assay: affinity purification with mass spectrometry; HEK293T transfected with pcDNA3.1 or FLAG-RBM39 for 48 h, lysed in modified radioimmunoprecipitation assay buffer; anti-FLAG affinity gel; SDS-PAGE, in-gel trypsin digest, label-free quantification, three biological replicates

Row | Binder | binding
1 | B1 | binds
2 | B2 | binds
